Source: doi:10.1101/2024.08.27.609947
These are yes or no findings as the source states them, for the method shown. Binding seen in cells or lysates may run through a third protein. Some entries that bind do so weakly or less than the wild type. Where a sequence is shown, tags or fusion partners need not be part of it.

Sequences of proteins named here, by UniProt entry; tags and fusion partners are left off.
UniProt P20434: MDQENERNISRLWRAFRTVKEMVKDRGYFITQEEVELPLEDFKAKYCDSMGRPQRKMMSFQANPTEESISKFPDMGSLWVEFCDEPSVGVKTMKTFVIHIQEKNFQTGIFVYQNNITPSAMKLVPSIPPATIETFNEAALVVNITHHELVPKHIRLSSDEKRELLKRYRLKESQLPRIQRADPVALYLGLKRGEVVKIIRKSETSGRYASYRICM

What follows are molecules tested against T1, Rpc2 (Rpc128) with C-terminal TAP tag (S. cerevisiae (endogenous in strain YLy3)) (UniProt P22276) (assay: pull-down).
T1 sequence: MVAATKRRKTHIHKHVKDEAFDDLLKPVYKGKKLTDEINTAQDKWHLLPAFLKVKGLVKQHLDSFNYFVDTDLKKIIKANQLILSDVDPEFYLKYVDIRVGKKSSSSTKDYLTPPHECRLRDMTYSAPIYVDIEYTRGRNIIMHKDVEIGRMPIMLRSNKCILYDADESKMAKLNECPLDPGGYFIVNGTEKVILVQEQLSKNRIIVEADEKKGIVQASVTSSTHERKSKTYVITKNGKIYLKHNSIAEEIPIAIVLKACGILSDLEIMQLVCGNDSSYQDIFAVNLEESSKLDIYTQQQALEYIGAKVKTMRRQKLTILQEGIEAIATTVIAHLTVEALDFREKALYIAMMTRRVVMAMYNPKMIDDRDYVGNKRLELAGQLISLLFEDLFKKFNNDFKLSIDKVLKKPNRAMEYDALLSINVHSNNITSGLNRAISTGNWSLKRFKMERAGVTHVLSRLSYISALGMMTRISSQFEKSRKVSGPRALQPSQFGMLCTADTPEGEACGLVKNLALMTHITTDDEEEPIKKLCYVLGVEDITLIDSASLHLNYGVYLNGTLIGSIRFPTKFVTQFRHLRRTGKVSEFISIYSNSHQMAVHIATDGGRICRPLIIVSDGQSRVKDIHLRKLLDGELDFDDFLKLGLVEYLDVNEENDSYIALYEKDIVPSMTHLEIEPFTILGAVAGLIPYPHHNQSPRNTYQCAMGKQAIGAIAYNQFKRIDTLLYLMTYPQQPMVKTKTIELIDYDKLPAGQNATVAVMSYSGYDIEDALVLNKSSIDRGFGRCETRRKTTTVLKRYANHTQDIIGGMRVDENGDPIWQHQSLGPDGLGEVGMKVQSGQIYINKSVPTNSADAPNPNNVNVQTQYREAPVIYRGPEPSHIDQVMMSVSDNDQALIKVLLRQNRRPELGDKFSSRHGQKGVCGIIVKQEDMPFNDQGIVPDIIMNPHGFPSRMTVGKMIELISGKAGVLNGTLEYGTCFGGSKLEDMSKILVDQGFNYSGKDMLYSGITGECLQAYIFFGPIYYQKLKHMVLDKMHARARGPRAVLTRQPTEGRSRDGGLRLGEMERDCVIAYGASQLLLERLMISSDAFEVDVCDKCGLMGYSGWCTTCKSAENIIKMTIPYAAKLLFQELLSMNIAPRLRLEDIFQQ

Row | Molecule | binding
1 | ABC27 (from UniProt P20434 1-215) | binds
2 | Rpc1 (Rpc160) (protein, UniProt P04051 1-1460) MKEVVVSETPKRIKGLEFSALSAADIVAQSEVEVSTRDLFDLEKDRAPKANGALDPKMGVSSSSLECATCHGNLASCHGHFGHLKLALPVFHIGYFKATIQILQGICKNCSAILLSETDKRQFLHELRRPGVDNLRRMGILKKILDQCKKQRRCLHCGALNGVVKKAAAGAGSAALKIIHDTFRWVGKKSAPEKDIWVGEWKEVLAHNPELERYVKRCMDDLNPLKTLNLFKQIKSADCELLGIDATVPSGRPETYIWRYLPAPPVCIRPSVMMQDSPASNEDDLTVKLTEIVWTSSLIKAGLDKGISINNMMEHWDYLQLTVAMYINSDSVNPAMLPGSSNGGGKVKPIRGFCQRLKGKQGRFRGNLSGKRVDFSGRTVISPDPNLSIDEVAVPDRVAKVLTYPEKVTRYNRHKLQELIVNGPNVHPGANYLLKRNEDARRNLRYGDRMKLAKNLQIGDVVERHLEDGDVVLFNRQPSLHRLSILSHYAKIRPWRTFRLNECVCTPYNADFDGDEMNLHVPQTEEARAEAINLMGVKNNLLTPKSGEPIIAATQDFITGSYLISHKDSFYDRATLTQLLSMMSDGIEHFDIPPPAIMKPYYLWTGKQVFSLLIKPNHNSPVVINLDAKNKVFVPPKSKSLPNEMSQNDGFVIIRGSQILSGVMDKSVLGDGKKHSVFYTILRDYGPQEAANAMNRMAKLCARFLGNRGFSIGINDVTPADDLKQKKEELVEIAYHKCDELITLFNKGELETQPGCNEEQTLEAKIGGLLSKVREEVGDVCINELDNWNAPLIMATCGSKGSTLNVSQMVAVVGQQIISGNRVPDGFQDRSLPHFPKNSKTPQSKGFVRNSFFSGLSPPEFLFHAISGREGLVDTAVKTAETGYMSRRLMKSLEDLSCQYDNTVRTSANGIVQFTYGGDGLDPLEMEGNAQPVNFNRSWDHAYNITFNNQDKGLLPYAIMETANEILGPLEERLVRYDNSGCLVKREDLNKAEYVDQYDAERDFYHSLREYINGKATALANLRKSRGMLGLLEPPAKELQGIDPDETVPDNVKTSVSQLYRISEKSVRKFLEIALFKYRKARLEPGTAIGAIGAQSIGEPGTQMTLKTFHFAGVASMNVTLGVPRIKEIINASKVISTPIINAVLVNDNDERAARVVKGRVEKTLLSDVAFYVQDVYKDNLSFIQVRIDLGTIDKLQLELTIEDIAVAITRASKLKIQASDVNIIGKDRIAINVFPEGYKAKSISTSAKEPSENDVFYRMQQLRRALPDVVVKGLPDISRAVINIRDDGKRELLVEGYGLRDVMCTDGVIGSRTTTNHVLEVFSVLGIEAARYSIIREINYTMSNHGMSVDPRHIQLLGDVMTYKGEVLGITRFGLSKMRDSVLQLASFEKTTDHLFDAAFYMKKDAVEGVSECIILGQTMSIGTGSFKVVKGTNISEKDLVPKRCLFESLSNEAALKAN | binds
3 | Rpc82 (protein, UniProt P32349 1-654) MDELLGEALSAENQTGESTVESEKLVTPEDVMTISSLEQRTLNPDLFLYKELVKAHLGERAASVIGMLVALGRLSVRELVEKIDGMDVDSVKTTLVSLTQLRCVKYLQETAISGKKTTYYYYNEEGIHILLYSGLIIDEIITQMRVNDEEEHKQLVAEIVQNVISLGSLTVEDYLSSVTSDSMKYTISSLFVQLCEMGYLIQISKLHYTPIEDLWQFLYEKHYKNIPRNSPLSDLKKRSQAKMNAKTDFAKIINKPNELSQILTVDPKTSLRIVKPTVSLTINLDRFMKGRRSKQLINLAKTRVGSVTAQVYKIALRLTEQKSPKIRDPLTQTGLLQDLEEAKSFQDEAELVEEKTPGLTFNAIDLARHLPAELDLRGSLLSRKPSDNKKRSGSNAAASLPSKKLKTEDGFVIPALPAAVSKSLQESGDTQEEDEEEEDLDADTEDPHSASLINSHLKILASSNFPFLNETKPGVYYVPYSKLMPVLKSSVYEYVIASTLGPSAMRLSRCIRDNKLVSEKIINSTALMKEKDIRSTLASLIRYNSVEIQEVPRTADRSASRAVFLFRCKETHSYNFMRQNLEWNMANLLFKKEKLKQENSTLLKKANRDDVKGRENELLLPSELNQLKMVNERELNVFARLSRLLSLWEVFQMA | binds
